“And” between values parts separate entries of the source, which are not always exact repeats. Identical values can stand only once. Out of some 300,000 compounds screened, about 5,400 (1.8%) were called active. The shares of active, inactive and inconclusive entries below differ from those in the screen. The call rests on the fitted dose curve; tested in HEK293 cells. A potency beside an inconclusive call is a rough fit, not a confirmed value.
Test: qHTS for inhibitors of binding or entry into cells for Marburg Virus
Settings: Marburg virus pseudotyped entry inhibition, cell reporter; series mostly up to 37.8 µM
Potency means the concentration at half of the fitted maximal effect.

Row | SMILES | Potency
1 | O=C(Nc1ccccn1)c1cccnc1 | inactive
2 | CC1CCCN(Cc2nc3c(c(=O)n(C)c(=O)n3C)n2CCCc2ccccc2)C1 (stereo not given) | inconclusive: 3.16 µM [inhibitor, partial curve, poor fit]
3 | CCCN(C(=O)CSCc1ccc(Cl)cc1)c1c(N)n(Cc2ccccc2)c(=O)[nH]c1=O | inconclusive: 5.62 µM [activator, single point]
4 | CSC(=NC#N)N1CCN(c2c(C)cccc2C)CC1 | inconclusive: 11.2 µM [inhibitor, single point]
5 | CC1CCc2cc(F)ccc2N1C(=O)c1ccncc1 (stereo not given) | inconclusive: 0.794 µM [activator, full curve, poor fit]
6 | O=C(CSc1nc2ccc(NC(=O)CSc3nnnn3Cc3ccccc3)cc2s1)Nc1ccccc1 | inconclusive: 8.2 µM [inhibitor, partial curve]
7 | O=S(=O)(CCSc1nc2ccccc2o1)c1nc2ccccc2s1 | inconclusive: 25.9 µM [inhibitor, single point]
8 | CCn1c(SCC(=O)Nc2cc(OC)ccc2OC)nnc1C1CCCCC1 | inconclusive: 9.2 µM [inhibitor, partial curve, poor fit]
9 | COc1cc(C(C)=O)ccc1Oc1ncnc2c1cnn2-c1ccc(F)cc1 | inactive
10 | CC(C)=NOc1cc(NC(=O)CCl)cc([N+](=O)[O-])c1 | active: 23.1 µM
11 | CCC1(c2ccc(F)cc2)NC(=O)N(CC(=O)NCc2ccc(C)cc2)C1=O (stereo not given) | inconclusive: 8.91 µM [inhibitor, partial curve, poor fit]
12 | COc1cc(CN(C2CCCCC2)S(=O)(=O)c2ccc(S(=O)(=O)N(C)C3CCCCC3)cc2)cc(OC)c1OC | inconclusive: 4.47 µM [inhibitor, full curve]
13 | N/C(=N\OC(=O)CCn1cccc(C(F)(F)F)c1=O)c1ccc(Cl)cc1 | inconclusive: 31.6 µM [inhibitor, single point]
14 | O=C(COc1ccccc1)N(CCc1ccccc1)c1nc(-c2ccc(F)cc2)cs1 | inconclusive: 15.8 µM [inhibitor, partial curve, poor fit]
15 | CCOc1ccc(OCCC(=O)OCC(=O)N2CCN(S(=O)(=O)c3ccc(Cl)cc3)CC2)cc1 | inconclusive: 6.31 µM [inhibitor, partial curve, poor fit]
16 | Cc1cc(C(=O)NCC2CCCO2)sc1C (stereo not given) | inconclusive: 17.8 µM [activator, partial curve, poor fit]
17 | O=C(Nc1cccc([N+](=O)[O-])c1)c1ccc2c(c1)OCCO2 | inconclusive: 29.1 µM [inhibitor, single point]
18 | CCCN(CCC)CCCNC(=O)c1cc2c(=O)[nH]c3ccccc3c2s1 | inconclusive: 8.91 µM [inhibitor, partial curve, poor fit]
19 | O=C(COc1nsnc1N1CCOCC1)Nc1ccc([N+](=O)[O-])cc1 | inconclusive: 14.1 µM [inhibitor, single point]
20 | COC(=O)N[C@@H](/C=C/c1ccccc1)[C@@H](C)[N+](=O)[O-] | inactive

Row | SMILES | Potency
21 | Cc1cccc(CNC(=O)c2ccc3c(c2)N(C)CCS3)c1 | inconclusive: 5.62 µM [activator, partial curve]
22 | O=C(CSc1ccc2c(c1)OCCO2)NCc1ccccc1 | inactive
23 | COc1ccc(C(=O)NCc2ccc3c(c2)OCO3)cc1S(=O)(=O)NCc1ccc(Cl)cc1 | inconclusive: 35.5 µM [inhibitor, single point]
24 | COc1ccc(/C=C/C(=O)NCc2c(C)nn(C)c2C)cc1COc1ccc(Br)cc1 | inconclusive: 29.1 µM [inhibitor, single point]
25 | COc1ccc(Cl)cc1C(=O)Nc1ccc2nc3n(c(=O)c2c1)CCCC3 | inconclusive: 5.01 µM [inhibitor, full curve, poor fit]
26 | CC1CCC(N2CC(=O)N(Cc3ccc4c(c3)OCO4)C(c3ccc(F)cc3)C2=O)CC1 (stereo not given) | inconclusive: 20.6 µM [inhibitor, partial curve, poor fit]
27 | CSc1ccccc1C(=O)OCC(=O)N1CCCC1=O | inconclusive: 0.398 µM [activator, partial curve, poor fit]
28 | CCCCOc1cccc(C(=O)NC(=S)Nc2cccc(C(F)(F)F)c2)c1 | inconclusive: 0.126 µM [inhibitor, full curve, poor fit]
29 | Fc1ccccc1COc1cccc2cccnc12 | inconclusive: 3.55 µM [activator, partial curve, poor fit]
30 | Cc1ccc(C(=O)Nc2cccc(-c3ccc(N4CCOCC4)nn3)c2)cc1 | inconclusive: 1.12 µM [activator, full curve, poor fit]
31 | CN(CCOCCOc1ccc2ccccc2c1)Cc1ccccc1 | inactive
32 | CCn1c(SCC(=O)N2c3ccccc3Sc3ccccc32)nc2c1c(=O)n(C)c(=O)n2C | inconclusive: 29.1 µM [inhibitor, single point]
33 | COc1cc(/C=N/NC(N)=O)cc(Br)c1OCc1ccccc1C | inactive
34 | CC(C)NC(=O)CC(=O)NN=C1CCCCC1 | inconclusive: 17.8 µM [inhibitor, single point]
35 | CCC(=O)N1CCCC(C(=O)c2ccc(-c3ccccc3)cc2)C1 (stereo not given) | inactive
36 | Cc1cc(NC(=O)Nc2ccc3c(ccn3C)c2)sn1 | inconclusive: 1.16 µM [activator, full curve] and inconclusive: 11.2 µM [activator, partial curve, poor fit]
37 | COc1ccc(NC(=O)CSc2nnc(N)s2)cc1 | inactive and inconclusive: 20 µM [activator, single point]
38 | O=C(NC(=S)NCC1CCCO1)c1ccco1 (stereo not given) | inconclusive: 6.31 µM [activator, partial curve, poor fit]
39 | COc1ccccc1-n1cnc2cc(NCc3ccco3)ccc21 | inconclusive: 0.355 µM [inhibitor, partial curve, poor fit]
40 | O=C(Nc1cccc(-n2cnnn2)c1)C1CCCN(Cc2cccc(C(F)(F)F)c2)C1 (stereo not given) | inconclusive: 22.4 µM [inhibitor, single point]
